Patent US20040058943A1, “Medicinal composition for treatment of chronic cardiac failure” (priority 2001, published 2004)

System: rats of heart failure after cardiac infarction prepared by coronary ligation
Settings: rat, in vivo, po, 1 mg/kg

COc1ccccc1Oc1c(NS(=O)(=O)C=Cc2ccccc2)nc(-c2ncccn2)nc1OC.[K] [Compound 1, N-[6-methoxy-5-(2-methoxyphenoxy)-2-(2-pyrimidinyl)-4-pyrimidinyl]-2-phenylethenesulfonamide potassium salt]
left ventricular systole and diastole function (LV+dP/dtmax, LVEDP): ameliorated to the same level as that of the rats of the normal group
